Reference: the supplement of paper PMC12067093, “Discovery and optimisation of a covalent ligand for TRIM25 and its application to targeted protein ubiquitination” (Chemical Science, 2025)
The list shows a part of the results.

compound: Cc1cc(ccc1-c1ccccc1)C(=O)N1CCCN(CC1)C(=O)CCl [compound 10]; test: probe-labelled cysteine peptide fold change vs DMSO (competition) (log2 fold change); higher = less target engagement (more negative = stronger competition); conditions: 10 µM; THP-1; incubation time: 4 h
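Also: competitive profiling in live THP-1 cells: cysteine peptides tagged with an iodoacetamide desthiobiotin (IA-DTB) probe, intensity after compound treatment relative to DMSO-treated cells.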

Target	probe-labelled cysteine peptide fold change
OCIAD2_Q56VL3_46_ECQEESFWK (UniProt Q56VL3)	-0.0156
NUBP2_Q9Y5Y2_202_VMGIVENMSGFTCPHCTECTSVFSR (UniProt Q9Y5Y2)	0.103
OCRL_Q01968_28_GPLREPCALTLAQR (UniProt Q01968)	0.0735
NUDT18_Q6ZVK8_100_EEAGLHCEPETLLSVEER (UniProt Q6ZVK8)	-0.257
NUP85_Q9BW27_230_EADASPASAGICR (UniProt Q9BW27)	-0.0142
OLA1_Q9NTK5_117_GAHNGQGLGNAFLSHISACDGIFHLTR (UniProt Q9NTK5)	0.031
NUP133_Q8WUM0_1075_LEILCK (UniProt Q8WUM0)	0.221
OCRL_Q01968_104_FEIPDEEHCLK (UniProt Q01968)	-0.0346
NUP153_P49790_1065_SASVAPFTCK (UniProt P49790)	-0.179
ODF2_Q5BJF6_136_KIDSLMNAVGCLK (UniProt Q5BJF6)	-0.00955
OGDH_Q02218_331_ELEQIFCQFDSK (UniProt Q02218)	0.0516
NUP62_P37198_475_DIIEHLNTSGAPADTSDPLQQICK (UniProt P37198)	-0.0257
NUDCD2_Q8WVJ2_45_AQDIQCGLQSR (UniProt Q8WVJ2)	0.108
NUP188_Q5SRE5_1283_DGVCVLGLHLAK (UniProt Q5SRE5)	-0.0739
OAS3_Q9Y6K5_350_AGCSGLGHPIQLDPNQK (UniProt Q9Y6K5)	-0.129
OBSL1_O75147_362_EHGIAVLECK (UniProt O75147)	0.0287
OGDH_Q02218_395_AEQFYCGDTEGK (UniProt Q02218)	-0.0827
NUMB_P49757_58_GMHICEDAVK (UniProt P49757)	-0.0394
NUP205_Q92621_1216_AQIEQVIANCEHK (UniProt Q92621)	0.146
NUP98_P52948_760_GECIVSDFTIGR (UniProt P52948)	0.0918

Target	probe-labelled cysteine peptide fold change
NUP210_Q8TEM1_543_VYVIEPHSMEFAPCQVEAR (UniProt Q8TEM1)	-0.0295
NUP155_O75694_561_LHQEDQACATCLILACSTAACDR (UniProt O75694)	-0.0434
OGT_O15294_472_LKPDFPDAYCNLAHCLQIVCDWTDYDER (UniProt O15294)	0.115
NUBP1_P53384_25_GASCQGCPNQR (UniProt P53384)	-0.166
NUDT14_O95848_127_EAWEECGYHLAPSDLR (UniProt O95848)	-0.0835
NUP210_Q8TEM1_767_LTLAPVYTSPQLDMSCPLLQQNK (UniProt Q8TEM1)	-0.0587
NUDT14_O95848_12_CAASPYLRPLTLHYR (UniProt O95848)	-0.114
NUP155_O75694_373_LYFSTCPFR (UniProt O75694)	0.0117
OCRL_Q01968_104_RFEIPDEEHCLK (UniProt Q01968)	0.0107
NUMA1_Q14980-4_1729_PQLDLSIDSLDLSCEEGTPLSITR (UniProt Q14980)	-0.124
NUP88_Q99567_447+454_CFVEHILCTK (UniProt Q99567)	-0.105
OCIAD2_Q56VL3_130_HCLLTCEECK (UniProt Q56VL3)	-0.0517
NUP50_Q9UKX7_333_PLEGQAEGDSGECK (UniProt Q9UKX7)	-0.049
NUP160_Q12769_605_DVICLIK (UniProt Q12769)	0.651
NUP205_Q92621_530_MLQGLANGPQCAHYCFSLLK (UniProt Q92621)	0.0195
OGDH_Q02218_507_DVVVDLVCYR (UniProt Q02218)	0.19
NUB1_Q9Y5A7_400_ACDGNVDHAATHITNR (UniProt Q9Y5A7)	0.157
NUP160_Q12769_529_NLQQEFWCK (UniProt Q12769)	0.228
NUDCD3_Q8IVD9_260_CVLVNLSK (UniProt Q8IVD9)	0.148
NUP205_Q92621_141_CIANSLK (UniProt Q92621)	-0.163

same assay, conditions: 50 µM; THP-1; incubation time: 4 h

Target	probe-labelled cysteine peptide fold change
OCIAD2_Q56VL3_46_ECQEESFWK (UniProt Q56VL3)	0.137
NUBP2_Q9Y5Y2_202_VMGIVENMSGFTCPHCTECTSVFSR (UniProt Q9Y5Y2)	-0.187
OCRL_Q01968_28_GPLREPCALTLAQR (UniProt Q01968)	0.0454
NUDT18_Q6ZVK8_100_EEAGLHCEPETLLSVEER (UniProt Q6ZVK8)	0.151
NUP85_Q9BW27_230_EADASPASAGICR (UniProt Q9BW27)	-0.00907
OLA1_Q9NTK5_117_GAHNGQGLGNAFLSHISACDGIFHLTR (UniProt Q9NTK5)	-0.0398
NUP133_Q8WUM0_1075_LEILCK (UniProt Q8WUM0)	0.251
OCRL_Q01968_104_FEIPDEEHCLK (UniProt Q01968)	0.129
NUP153_P49790_1065_SASVAPFTCK (UniProt P49790)	-0.383
ODF2_Q5BJF6_136_KIDSLMNAVGCLK (UniProt Q5BJF6)	-0.128
OGDH_Q02218_331_ELEQIFCQFDSK (UniProt Q02218)	0.333
NUP62_P37198_475_DIIEHLNTSGAPADTSDPLQQICK (UniProt P37198)	0.0173
NUDCD2_Q8WVJ2_45_AQDIQCGLQSR (UniProt Q8WVJ2)	0.0196
NUP188_Q5SRE5_1283_DGVCVLGLHLAK (UniProt Q5SRE5)	-0.11
OAS3_Q9Y6K5_350_AGCSGLGHPIQLDPNQK (UniProt Q9Y6K5)	-0.378
OBSL1_O75147_362_EHGIAVLECK (UniProt O75147)	0.0424
OGDH_Q02218_395_AEQFYCGDTEGK (UniProt Q02218)	0.233
NUMB_P49757_58_GMHICEDAVK (UniProt P49757)	0.0727
NUP205_Q92621_1216_AQIEQVIANCEHK (UniProt Q92621)	0.0113
NUP98_P52948_760_GECIVSDFTIGR (UniProt P52948)	0.222

Target	probe-labelled cysteine peptide fold change
NUP210_Q8TEM1_543_VYVIEPHSMEFAPCQVEAR (UniProt Q8TEM1)	-0.0838
NUP155_O75694_561_LHQEDQACATCLILACSTAACDR (UniProt O75694)	0.113
OGT_O15294_472_LKPDFPDAYCNLAHCLQIVCDWTDYDER (UniProt O15294)	0.163
NUBP1_P53384_25_GASCQGCPNQR (UniProt P53384)	-0.851
NUDT14_O95848_127_EAWEECGYHLAPSDLR (UniProt O95848)	0.0546
NUP210_Q8TEM1_767_LTLAPVYTSPQLDMSCPLLQQNK (UniProt Q8TEM1)	0.226
NUDT14_O95848_12_CAASPYLRPLTLHYR (UniProt O95848)	0.105
NUP155_O75694_373_LYFSTCPFR (UniProt O75694)	0.486
OCRL_Q01968_104_RFEIPDEEHCLK (UniProt Q01968)	0.0227
NUMA1_Q14980-4_1729_PQLDLSIDSLDLSCEEGTPLSITR (UniProt Q14980)	0.388
NUP88_Q99567_447+454_CFVEHILCTK (UniProt Q99567)	-0.105
OCIAD2_Q56VL3_130_HCLLTCEECK (UniProt Q56VL3)	-0.25
NUP50_Q9UKX7_333_PLEGQAEGDSGECK (UniProt Q9UKX7)	0.167
NUP160_Q12769_605_DVICLIK (UniProt Q12769)	-0.214
NUP205_Q92621_530_MLQGLANGPQCAHYCFSLLK (UniProt Q92621)	0.207
OGDH_Q02218_507_DVVVDLVCYR (UniProt Q02218)	0.266
NUB1_Q9Y5A7_400_ACDGNVDHAATHITNR (UniProt Q9Y5A7)	0.0323
NUP160_Q12769_529_NLQQEFWCK (UniProt Q12769)	0.239
NUDCD3_Q8IVD9_260_CVLVNLSK (UniProt Q8IVD9)	0.155
NUP205_Q92621_141_CIANSLK (UniProt Q92621)	0.179
